Source: patent US20160103133A1
Results are given in words; binding and its absence hold for the method and conditions named. In cells and extracts the contact can be indirect. Some binding calls cover weakened binding; strength is not graded here.

Protein sequences, listed by entry. Tags and fused reporters are not part of them.
UniProt P00520: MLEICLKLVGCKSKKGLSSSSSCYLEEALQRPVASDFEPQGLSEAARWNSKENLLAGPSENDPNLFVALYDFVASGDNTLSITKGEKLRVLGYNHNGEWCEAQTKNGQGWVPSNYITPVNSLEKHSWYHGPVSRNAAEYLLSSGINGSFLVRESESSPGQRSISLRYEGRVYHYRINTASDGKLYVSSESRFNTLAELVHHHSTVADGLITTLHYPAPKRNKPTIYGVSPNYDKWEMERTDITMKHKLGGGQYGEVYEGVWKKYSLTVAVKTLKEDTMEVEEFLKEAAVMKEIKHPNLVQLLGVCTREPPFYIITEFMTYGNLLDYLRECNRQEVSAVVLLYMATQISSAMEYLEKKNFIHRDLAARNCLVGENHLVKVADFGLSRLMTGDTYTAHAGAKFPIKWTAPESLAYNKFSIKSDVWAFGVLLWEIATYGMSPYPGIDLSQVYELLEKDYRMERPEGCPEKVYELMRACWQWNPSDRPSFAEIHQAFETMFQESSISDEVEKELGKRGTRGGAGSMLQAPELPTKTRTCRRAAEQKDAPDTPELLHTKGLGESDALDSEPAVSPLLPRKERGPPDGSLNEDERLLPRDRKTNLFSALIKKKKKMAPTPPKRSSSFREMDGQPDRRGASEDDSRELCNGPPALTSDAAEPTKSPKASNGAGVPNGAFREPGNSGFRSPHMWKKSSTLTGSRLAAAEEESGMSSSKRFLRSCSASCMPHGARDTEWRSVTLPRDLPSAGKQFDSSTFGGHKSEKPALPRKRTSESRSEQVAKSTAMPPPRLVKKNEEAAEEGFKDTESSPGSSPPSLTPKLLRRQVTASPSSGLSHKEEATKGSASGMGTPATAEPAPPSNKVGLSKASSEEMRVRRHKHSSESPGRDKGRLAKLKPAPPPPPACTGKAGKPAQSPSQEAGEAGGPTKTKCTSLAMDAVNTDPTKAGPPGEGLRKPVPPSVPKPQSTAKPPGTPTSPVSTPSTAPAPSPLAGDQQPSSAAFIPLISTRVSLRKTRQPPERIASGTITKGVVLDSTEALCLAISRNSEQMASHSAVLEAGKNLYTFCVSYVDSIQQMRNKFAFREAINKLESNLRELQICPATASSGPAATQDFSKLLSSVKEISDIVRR

Experiments:
[1] = target: Abl (endogenous, mouse intestinal tumors) (mouse) (UniProt P00520); assay: co-immunoprecipitation from tumor lysates (FIG. 10B)
[2] = target: Abl (endogenous, mouse intestinal tumors) (mouse) (UniProt P00520); assay: co-immunoprecipitation from tumor lysates, western blotting with anti-Abl and anti-Dab1

binding [1]: binds
binding [2]: binds
B1: Dab1 (endogenous, mouse intestinal tumors) (protein, UniProt P97318 1-588, looked up)
chain: MSTETELQVAVKTSAKKDSRKKGQDRSEATLIKRFKGEGVRYKAKLIGIDEVSAARGDKLCQDSMMKLKGVVAGARSKGEHKQKIFLTISFGGIKIFDEKTGALQHHHAVHEISYIAKDITDHRAFGYVCGKEGNHRFVAIKTAQAAEPVILDLRDLFQLIYELKQREELEKKAQKDKQCEQAVYQTILEEDVEDPVYQYIVFEAGHEPIRDPETEENIYQVPTSQKKEGVYDVPKSQPNSQPLEDFESRFAAATPNRNLSMDFDELLEATKVSAVTQLELFGDMSTPPDITSPPTPATPGDAFLPSSSQTLPGSADVFGSMSFGTAAVPSGYVAMGAVLPSFWGQQPLVQQQIAMGAQPPVAQVIPGAQPIAWGQPGLFPATQQAWPTVAGQFPPAAFMPTQTVMPLAAAMFQGPLTPLATVPGTNDSARSSPQSDKPRQKMGKESFKDFQMVQPPPVPSRKPDQPSLTCTSEAFSSYFNKVGVAQDTDDCDDFDISQLNLTPVTSTTPSTNSPPTPAPRQSSPSKSSASHVSDPTADDIFEEGFESPSKSEEQEAPDGSQASSTSDPFGEPSGEPSGDNISPQDGS
